According to PMC9573667, “Efficient Oxidative Dearomatisations of Substituted Phenols Using Hypervalent Iodine (III) Reagents and Antiprotozoal Evaluation of the Resulting Cyclohexadienones against T. b. rhodesiense and P. falciparum Strain NF54” (Molecules, 2022):

What was measured:
[1] = test system: P. falciparum, strain NF54, erythrocytic stages; assay: In vitro growth inhibition assay of Plasmodium falciparum NF54 ([3H]-hypoxanthine incorporation); assay type: cell-based; conditions: L6 vs P. falciparum NF54
Experimental: Antimalarial activity was determined in vitro against the erythrocytic stages of P. falciparum using the drug-sensitive strain NF54. Parasite proliferation was assessed by incorporation of [^3H]-hypoxanthine using a modified version of [75]; for details, please refer to the Supplementary Materials. The positive control was chloroquine.
1. Experimental of biological testing
1.1 In vitro growth inhibition assay of Plasmodium falciparum NF54
Plasmodium falciparum, strain NF54, erythrocytic stages, and the standard drug, chloroquine, were used for the assay. The parasite cultures incubated in RPMI 1640 medium with 5% AlbuMAXTM (without hypoxanthine) were exposed to serial drug dilutions in microtiter plates. After 48 h of incubation at 37 °C in a reduced oxygen atmosphere, 0.5 μCi [3H]-hypoxanthine was added to each well of the plate. Cultures were incubated for a further 24 h before they were harvested onto glass-fiber filters and washed with distilled water. The radioactivity was counted using a BetaplateTM liquid scintillation […]
counter (Wallac, Zurich). […]
concentration and expressed as percentage of the untreated controls. IC50 values were calculated from the sigmoidal inhibition curves using Microsoft Excel. Chloroquine was used as control. […]

[2] = test system: T. brucei rhodesiense, strain STIB900 trypomastigote forms; assay: In vitro growth inhibition assay of Trypanosoma brucei rhodesiense STIB900 (Alamar blue); assay type: cell-based; conditions: L6 vs T. b. rhodesiense STIB900
Experimental: Trypanocidal activity was determined in vitro against axenically grown bloodstream-forms of T. b. rhodesiense STIB900 as described in Refs. [76, 77] and detailed in the Supplementary Materials. Parasite proliferation was assessed via fluorescence of the redox-sensitive dye resazurin (Alamar blue). The drug melarsoprol was used as the positive control. […]
1.2 In vitro growth inhibition assay of Trypanosoma brucei rhodesiense
Trypanosoma brucei rhodesiense, STIB 900 strain, and the standard drug, melarsoprol, were used for the assay. Minimum Essential Medium (50 μL) supplemented with 25 mM HEPES, 1g/L additional glucose, 1% MEM non-essential amino acids (100x), 0.2 mM 2-mercaptoethanol, 1 mM Na-pyruvate and 15% heat-inactivated horse serum was added to each well of a 96-well microtiter plate. Serial drug dilutions of 11 three-fold dilution steps covering a range from 100 to 0.002 μg/mL were prepared. Then […]
mL double-distilled water) was then added to each well and incubation continued for a further 2–4 h.
Then, the plates were read with a Spectramax Gemini XS microplate fluorometer (Molecular Devices Cooperation, Sunnyvale, CA, USA) using an excitation wavelength of 536 nm and an emission wavelength of 588 nm. The IC50 values were calculated from the sigmoidal inhibition curves using the microplate reader software Softmax Pro (Molecular Devices Cooperation, Sunnyvale, CA, USA). […]

SMILES | SI (IC50 in L6 cells/IC50 in P. falciparum) [1] | SI (IC50 in L6 cells/IC50 in T. b. rhodesiense) [2]
CCN(CC)CCCC(C)Nc1ccnc2cc(Cl)ccc12 (centres unmarked) [Chl., chloroquine, reference compound] | 45,500 | 
Nc1nc(N)nc(Nc2ccc([As]3SCC(CO)S3)cc2)n1 (centres unmarked) [Mel., melarsoprol, reference compound] |  | 6050
